Measurements taken from patent US4281136A, “2-Alkyl-3-haloisothiazolium salts and their derivatives” (Givaudan Corporation, priority 1978, dated 1981).
At least one compound was matched to its structure with a doubt left.

Tested on: Aureobasidium pullulans
Experiment: preservative for latex paints
Type: cell-based
Conditions: three weeks, 27°-28°, none, medium or heavy
Description: Various quantities of the chemical were incorporated into a white exterior vinyl acetate paint. Whatman #30 filter paper was painted with one coat of paint on each side. One inch squares were cut and placed in Petri dishes on a malt agar.
The surface of both the agar and the painted squares were inoculated with a spore suspension of Aureobasidium pullulans. The plates were examined for zones of inhibition and surface growth after three weeks incubation in a humidity chamber at 27°-28°.
Various quantities of 4,5-dichloro-2-methyl-4-isothiazolin-3-thione were incorporated into a white exterior vinyl acetate paint and tested as described in Example IV.

## C[n+]1sc(Cl)c(C#N)c1Cl [No. 26 (Table I), 4-Cyano-3,5-dichloro-2-methylisothiazolium fluorosulfonate]
Conc. 0.25% in vinyl acetate paint
  Surface (growth on the surface of painted square): None
Conc. 0.5% in vinyl acetate paint
  Surface (growth on the surface of painted square): None
